PubChem BioAssay AID652243, Drosophila RNAi Screening Center | 2013
The deposit covers about 24,000 reagents; shown is an unselected part of those that have a named target and a result. In the full data, 246 (1%) are marked active. 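Plates not normalised; calls are printed but the firefly/Renilla ratio behind them is not deposited; fold cut for lowering reported inconsistently.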 The raw values are shown without normalisation. Unmarked entries are inactive. Names joined by + are all predicted targets of the reagent. Not given: the amount of reagent.

Assay: 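Fly regulators of androgen-dependent reporter output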 (primary screen)
Cells: Drosophila S2R+ cells
Reagent: long dsRNA against Drosophila genes
Timing: 72 h (48 h, then 24 h hormone)
Challenge: synthetic androgen R1881 at 10 nM for 24 h
Read-out: 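Per-well raw luminescence of the androgen-driven firefly reporter and of the Renilla control, two replicates each, without normalisation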
Scale: firefly reporter light: higher = more light from androgen-responsive reporter; Renilla control light: higher = more constitutive control signal (cell number, transfection)
Call rule: 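Hit when the log firefly-to-Renilla ratio dropped or increased by a fixed fold versus the mean of GFP or LacZ controls across duplicate plates; lowering cut given as 1.5 and as 3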
Meaning of the calls: active = hit: reporter lowered or raised; inactive = no hit

| gene knocked down | dsRNA | firefly reporter light, replicate 1 | firefly reporter light, replicate 2 | Renilla control light, replicate 1 | Renilla control light, replicate 2 |
| --- | --- | --- | --- | --- | --- |
| Lnpk | DRSC07254 | 7.03e5 | 8.49e5 | 1.18e6 | 1.68e6 |
| Lnpk | DRSC29127 | 9.12e5 | 1.06e6 | 1.19e6 | 1.61e6 |
| CG17786 | DRSC15270 | 2.20e5 | 1.67e5 | 2.16e6 | 1.78e6 |
| CG17786 | DRSC25378 | 7.70e5 | 5.52e5 | 8.18e5 | 7.96e5 |
| CR31032 | DRSC22457 | 5.91e5 | 9.76e5 | 9.48e5 | 1.28e6 |
| CR31032 | DRSC25512 | 4.61e5 | 4.75e5 | 7.38e5 | 6.01e5 |
| CG14866 | DRSC14989 | 2.64e5 | 2.17e5 | 3.53e6 | 2.90e6 |
| CG31780 + CG18477 | DRSC26122 | 2.55e5 | 2.53e5 | 8.42e5 | 7.40e5 |
| CG18810 | DRSC02701 | 98920 | 82438 | 1.13e6 | 1.02e6 |
| Med | DRSC25769 | 3.17e5 | 2.21e5 | 7.43e5 | 5.89e5 |
| CG32262 | DRSC08165 | 6.46e5 | 8.20e5 | 1.40e6 | 1.18e6 |
| CG32262 | DRSC29141 | 4.27e5 | 4.75e5 | 1.45e6 | 1.13e6 |
| Ugt35B1 | DRSC16893 | 1.07e5 | 83442 | 1.02e6 | 8.85e5 |
| Ugt35B1 | DRSC27518 | 1.80e5 | 2.25e5 | 7.07e5 | 1.01e6 |
| Ugt35B1 | DRSC38981 | 7.18e5 | 6.49e5 | 1.76e6 | 1.71e6 |
| CG34201 | DRSC38628 | 1.03e6 | 7.19e5 | 2.26e6 | 1.31e6 |
| Cpr23B | DRSC23504 | 5.63e5 | 7.10e5 | 7.25e5 | 7.88e5 |
| CG9812 | DRSC04566 | 3.29e5 | 3.42e5 | 2.06e6 | 1.79e6 |
| CG1354 | DRSC17902 | 2.30e5 | 3.11e5 | 2.11e6 | 1.94e6 |
| CG8569 | DRSC07214 | 5.96e5 | 4.60e5 | 1.08e6 | 1.09e6 |
| Cyp308a1 | DRSC20238 | 3.71e5 | 1.32e5 | 1.22e6 | 2.46e5 |
| Cyp308a1 | DRSC26958 | 5.22e5 | 2.96e5 | 6.12e5 | 4.07e5 |
| CG3420 | DRSC04995 | 3.62e5 | 4.63e5 | 2.67e6 | 2.88e6 |
| CG6204 | DRSC15991 | 92616 | 76855 | 6.34e5 | 6.56e5 |
| bif | DRSC18901 | 1.08e6 | 5.83e5 | 1.95e6 | 9.86e5 |
| bif | DRSC20313 | 79651 | 90978 | 6.93e5 | 5.79e5 |
| bif | DRSC28382 | 2.91e5 | 4.96e5 | 6.81e5 | 1.10e6 |
| prd | DRSC03597 | 8.38e5 | 1.19e6 | 1.35e6 | 1.96e6 |
| Sec22 + CG13358 | DRSC18538 | 29002 | 42853 | 3.42e5 | 2.69e5 |
| Cipc | DRSC14898 | 88959 | 76349 | 9.45e5 | 7.77e5 |
| Cipc | DRSC14900 | 1.63e5 | 1.50e5 | 2.42e6 | 1.95e6 |
| CG9130 + CG9133 | DRSC08624 | 5.81e5 | 5.46e5 | 2.49e6 | 2.61e6 |
| CG9130 + CG9133 | DRSC08625 | 6.12e5 | 5.16e5 | 9.83e5 | 1.14e6 |
| CG9130 + CG9133 | DRSC22010 | 8.21e5 | 9.97e5 | 1.34e6 | 9.67e5 |
| CG9130 + CG9133 | DRSC29697 | 6.42e5 | 4.78e5 | 1.52e6 | 1.58e6 |
| CG3342 | DRSC18304 | 92134 | 82388 | 7.84e5 | 4.67e5 |
| CG3342 | DRSC30048 | 7.31e5 | 4.47e5 | 1.18e6 | 1.08e6 |
| PCNA2 | DRSC02030 | 99691 | 1.13e5 | 1.44e6 | 1.55e6 |
| CG15233 | DRSC04967 | 1.59e6 | 1.55e6 | 1.73e6 | 2.17e6 |
| Jon44E | DRSC07216 | 3.15e5 | 2.51e5 | 1.29e6 | 1.31e6 |
| Jon44E | DRSC25190 | 7.70e5 | 3.98e5 | 6.73e5 | 6.85e5 |
| CG10750 | DRSC02105 | 8.58e5 | 7.43e5 | 2.83e6 | 2.87e6 |
| CG10750 | DRSC29624 | 3.56e5 | 3.95e5 | 8.97e5 | 8.97e5 |
| CG9452 | DRSC11075 | 1.99e5 | 1.55e5 | 2.68e6 | 1.79e6 |
| CG9452 | DRSC23344 | 8.12e5 | 8.97e5 | 1.69e6 | 1.52e6 |
| CG33631 | DRSC38823 | 6.62e5 | 6.31e5 | 2.22e6 | 1.63e6 |
| Pyroxd1 | DRSC02098 | 29296 (active) | 47183 | 5.53e5 | 1.04e6 |
| pn | DRSC18822 | 79847 | 81309 | 5.20e5 | 4.87e5 |
| pn | DRSC28649 | 4.35e5 | 4.74e5 | 1.39e6 | 1.57e6 |
| Sam-S | DRSC00758 | 8.45e5 | 8.18e5 | 3.94e6 | 1.79e6 |
| CalpB | DRSC11109 | 5.54e5 | 5.98e5 | 5.40e5 | 6.39e5 |
| CalpB | DRSC25885 | 2.99e5 | 3.11e5 | 8.78e5 | 7.43e5 |
| CG1492 | DRSC19605 | 3.78e5 | 3.80e5 | 8.65e5 | 7.33e5 |
| CG5515 | DRSC15825 | 76607 | 42672 | 4.64e5 | 3.85e5 |
| side-III | DRSC12155 | 43913 | 31652 | 1.33e6 | 9.23e5 |
| side-III | DRSC12264 | 85461 | 1.06e5 | 2.58e6 | 2.02e6 |
| side-III | DRSC24955 | 1.20e6 | 8.70e5 | 8.27e5 | 6.71e5 |
| side-III | DRSC30000 | 2.50e5 | 2.01e5 | 1.14e6 | 1.40e6 |

Reprinted from above for reference:
| gene knocked down | dsRNA | firefly reporter light, replicate 1 | firefly reporter light, replicate 2 | Renilla control light, replicate 1 | Renilla control light, replicate 2 |
| --- | --- | --- | --- | --- | --- |
| prd | DRSC03597 | 8.38e5 | 1.19e6 | 1.35e6 | 1.96e6 |
| Sec22 + CG13358 | DRSC18538 | 29002 | 42853 | 3.42e5 | 2.69e5 |
| Cipc | DRSC14898 | 88959 | 76349 | 9.45e5 | 7.77e5 |
| Cipc | DRSC14900 | 1.63e5 | 1.50e5 | 2.42e6 | 1.95e6 |
| CG9130 + CG9133 | DRSC08624 | 5.81e5 | 5.46e5 | 2.49e6 | 2.61e6 |
